Structures can show the parent of a compound that is named as a salt. ± gives the standard deviation of the averaged measurements. This is one part of the list. This is a noisy data set.
test system: Salmonella enterica serovar Typhimurium ST313 D23580; assay: normalized bacterial growth (OD600 20 h minus 0 h, interquartile-mean normalized) (fraction of plate interquartile mean); higher = more bacterial growth (less inhibition); settings: LPM (pH 5.8, low phosphate, low Mg2+), concentration: 10 µM, temperature: 37 °C

Structure (SMILES) | normalized bacterial growth
c1ccc2sc(C3(N4CCCCC4)CCCCC3)cc2c1 [BTCP hydrochloride] | 1.01
COc1cc2c(cc1O)C[C@H]1c3c(cc(O)c(OC)c3-2)CCN1C | 0.994 ± 0.034
C[C@H]1CC[C@]2(NC1)O[C@H]1C[C@H]3[C@@H]4CC[C@H]5C[C@@H](O[C@@H]6O[C@H](CO)[C@H](O[C@@H]7O[C@H](CO)[C@@H](O)[C@H](O[C@@H]8OC[C@@H](O)[C@H](O)[C@H]8O)[C@H]7O[C@@H]7O[C@H](CO)[C@@H](O)[C@H](O)[C@H]7O)[C@H](O)[C@H]6O)CC[C@]5(C)[C@H]4CC[C@]3(C)[C@H]1[C@@H]2C | 0.852
C[C@H]1CC[C@]2(NC1)O[C@H]1C[C@H]3[C@@H]4CC[C@H]5C[C@@H](O[C@@H]6O[C@H](CO)[C@H](O[C@@H]7O[C@H](CO)[C@@H](O)[C@H](O[C@@H]8OC[C@@H](O)[C@H](O)[C@H]8O)[C@H]7O[C@@H]7O[C@H](CO)[C@@H](O)[C@H](O)[C@H]7O)[C@H](O)[C@H]6O)CC[C@]5(C)[C@H]4CC[C@]3(C)[C@H]1[C@@H]2C [Tomatine] | 0.798
CC1(C)C(=O)C=C[C@@]2(C)C1=C(O)C(=O)[C@]1(C)[C@@H]2CC[C@@]2(C)[C@H](c3ccoc3)C[C@H]3O[C@]321 | 0.972
C[C@H]1OC[C@@H](C[N+](C)(C)C)O1 [(+)-cis-Dioxolane] | 1.15
COc1ccc(C(=O)OC2C[C@H]3CC[C@@H](C2)N3C)cc1OC (some centres not stated) [Convolamine hydrochloride] | 1.02
O=C(CCCN1CCC(n2c(=O)[nH]c3ccccc32)CC1)c1ccc(F)cc1 [Benperidol] | 0.996
O=C1CCO1 | 0.878
Cc1c(O)c(O)cc2c1CC=C1[C@@]2(C)CC[C@@]2(C)[C@@H]3C[C@](C)(C(=O)O)CC[C@]3(C)CC[C@]12C | 1.34
CC(=O)O[C@@H]1C[C@H]2C(C)(C)C(=O)C=C[C@]2(C)[C@H]2CC[C@]3(C)C(=CC(=O)O[C@H]3c3ccoc3)[C@@]21C | 0.778
OC(c1ccccc1)(c1ccccc1)C1CCNCC1 [Azacyclonol] | 1.14
NC1CCc2cc(O)c(O)cc2C1 (configuration not stated) ["6,7-ADTN hydrobromide"] | 1.21
N[C@@H]1C[C@H]1c1ccccc1.N[C@H]1C[C@@H]1c1ccccc1 | 1.11
C[N+]1(C)CCCC(OC(=O)C(O)(c2ccccc2)c2ccccc2)C1 (configuration not stated) | 1.15
COc1cc(OC)c(OC)cc1C=O | 1.07
CN1C2CCC1CC(O)C2 (configuration not stated) | 1.24 ± 0.26
COc1cc([C@@H]2c3cc4c(cc3[C@@H](O)[C@H]3COC(=O)[C@H]23)OCO4)cc(OC)c1O | 1.02
C/C(O)=C(\C#N)C(=O)Nc1cc(Br)ccc1Br | 1.24
C[C@@]12C(=O)OC(=O)[C@]1(C)[C@H]1CC[C@@H]2O1 [Cantharidin] | 0.541
C[C@@]12C(=O)OC(=O)[C@]1(C)[C@H]1CC[C@@H]2O1 | 1.1 ± 0.49
COC(C)(C)CCC[C@H](C)C/C=C/C(C)=C/C(=O)OC(C)C | 1.09
CCC1(C)CC(=O)NC(=O)C1 [Bemegride] | 0.851
CCCC(C)(COC(N)=O)COC(=O)NC(C)C (configuration not stated) [Carisoprodol] | 1.08
Oc1ccc(Cl)cc1Cc1cc(Cl)ccc1O | 0.854
Cl[C@H]1[C@H](Cl)[C@@H](Cl)[C@@H](Cl)[C@H](Cl)[C@H]1Cl | 1.12
COc1ccc(CC2c3cc(OC)c(OC)cc3CCN2C)cc1OC (racemic) ["Laudanosine (R,S)"] | 1.27

Quoted at random: two entries already listed, in no set order.
Structure (SMILES) | normalized bacterial growth
COC(C)(C)CCC[C@H](C)C/C=C/C(C)=C/C(=O)OC(C)C | 1.09
C[C@@]12C(=O)OC(=O)[C@]1(C)[C@H]1CC[C@@H]2O1 [Cantharidin] | 0.541

Reference: the supplement of paper PMC10398353
